# Article PMC7819943, “Rice protein-binding microarrays: a tool to detect cis-acting elements near promoter regions in rice”
# Protein sequences, listed by entry. Tags and fused reporters are not part of them.
# UniProt Q0JBA9, entry or part of it: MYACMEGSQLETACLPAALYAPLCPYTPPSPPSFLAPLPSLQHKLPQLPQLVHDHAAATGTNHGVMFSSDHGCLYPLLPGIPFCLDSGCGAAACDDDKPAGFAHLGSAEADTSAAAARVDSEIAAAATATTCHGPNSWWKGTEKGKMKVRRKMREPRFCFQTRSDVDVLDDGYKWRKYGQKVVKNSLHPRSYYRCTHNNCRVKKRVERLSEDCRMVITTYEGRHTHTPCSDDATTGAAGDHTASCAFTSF
# The other results are listed elsewhere or left out.
# Target: OsWRKY34 (Oryza sativa, UniProt Q0JBA9 1-250)
# Experiment: protein-binding microarray (RPBM); PBS, 2% BSA, 51.3 ng/ul salmon testes DNA, 50 uM zinc acetate, 200 nM TF, 25 C, 1 h; high values mean tight binding
# Conditions: protein: recombinant; tags: N-terminal polyhistidine and DsRed monomer fusion (pET32a); label: CyDye5-dUTP incorporated in the synthesized complementary strand; 3' TTTTT single-stranded linker to array surface; dsDNA, one strand shown
# Summary of the method: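 An Axon 4000B scanner gave the binding signal as per-feature fluorescence intensity in arbitrary units. This followed washing of a custom Agilent array that had been incubated for 1 h at 25 °C with 200 nM protein in PBS, 2% BSA, salmon testes DNA and 50 µM zinc acetate. The proteins were transcription factors fused at the N-terminus to polyhistidine and DsRed, expressed in E. coli BL21-CodonPlus and purified on Ni–NTA.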
row,Sequence,binding signal
1,TAAACACATCCATCCCTTATGTCCAAAGCATCACTACACACGGAGTCACCTAGTGCAG,8440 fluorescence intensity (a.u.)
2,ACCTCAGACAACCGCCGATGCCCCTGATTTCCGATTTGTTCGGAGTCACCTAGTGCAG,11400 fluorescence intensity (a.u.)
3,TGAACGCTTCCCTGTGTTTGTGGTTACTGCCTTACTGGTTCGGAGTCACCTAGTGCAG,9210 fluorescence intensity (a.u.)
4,ATTACGGCGTCTCCTCGCCCACAGGTTGCCGCTGCAGTTTCGGAGTCACCTAGTGCAG,9430 fluorescence intensity (a.u.)
5,AGCCTTGTGTGTGTTTTGCGCTCGCGGCCGCCGCTATTTTCGGAGTCACCTAGTGCAG,9270 fluorescence intensity (a.u.)
6,CCACTTTTTTTTTCTTTTTCTTCGGTTTTTCTCTTCATCACGGAGTCACCTAGTGCAG,9040 fluorescence intensity (a.u.)
7,TTCAGTCATTTTTCATCACATCAATCTATCATACACACACCGGAGTCACCTAGTGCAG,8180 fluorescence intensity (a.u.)
8,CCTGCCAATCCCGCCACGTTCTTGCGGCCCAGCCATCCATCGGAGTCACCTAGTGCAG,8300 fluorescence intensity (a.u.)
9,TTTTATTGTTGGGTGTGTTTAATTTTATTTGAACTTCACTCGGAGTCACCTAGTGCAG,8360 fluorescence intensity (a.u.)
10,TGTAGTGTTATTTGTCCCACCCATCACTGCACACCTCATTCGGAGTCACCTAGTGCAG,8610 fluorescence intensity (a.u.)
11,TGCTATTGGGATTATTTTTGTTCCCACAACCGCTTTATTTCGGAGTCACCTAGTGCAG,8300 fluorescence intensity (a.u.)
12,TCATAACCTTCTACAATTTAAATTATCCACCTTTTTTTTCCGGAGTCACCTAGTGCAG,10700 fluorescence intensity (a.u.)
13,CCACCTGCCAGCCTGTACCCACCCCTCCCTACTGTTATACCGGAGTCACCTAGTGCAG,8640 fluorescence intensity (a.u.)
14,GTTTATTACGTGGATCTGTGAATTTGTTCATTGTGGACCTCGGAGTCACCTAGTGCAG,8740 fluorescence intensity (a.u.)
15,TCGCATTTGTTAGTTTTCCATCGCCGATTGATACATACATCGGAGTCACCTAGTGCAG,9650 fluorescence intensity (a.u.)
16,CGTCGTGGCGGGTTCATCGGGAGGGGATTATTGATTTAGTCGGAGTCACCTAGTGCAG,21100 fluorescence intensity (a.u.)
17,GAGGGTGGGTGCTTGCTGGCCAGACATTAAAACAATGTGTCGGAGTCACCTAGTGCAG,9670 fluorescence intensity (a.u.)
18,CGTTACACGTTGCACTGCACTTGTCTCACTGTATTAATTCCGGAGTCACCTAGTGCAG,9730 fluorescence intensity (a.u.)
19,CATCTTTTGTTCGAATACCTATTTTACTCTTAGCAATCAACGGAGTCACCTAGTGCAG,10700 fluorescence intensity (a.u.)
20,TCCGATCCGCGCGCTCCCACCACCTGCGCCTCGCATCCTACGGAGTCACCTAGTGCAG,10300 fluorescence intensity (a.u.)
21,CAACTCCAGGTCAATTAATTCCCTAAATCATTTTTCAGTTCGGAGTCACCTAGTGCAG,8600 fluorescence intensity (a.u.)
22,CTTACCCACATCTCATTTTTACACTGCAGCACCTGTCAGTCGGAGTCACCTAGTGCAG,9280 fluorescence intensity (a.u.)
23,TTTTCCGCCACTTACACAGTAGTTACACCTCATTTACACCCGGAGTCACCTAGTGCAG,11300 fluorescence intensity (a.u.)
24,TCCTCTTCACTCTCCAGCAGCTCAGCTAGTCAGCTCTACACGGAGTCACCTAGTGCAG,8550 fluorescence intensity (a.u.)
25,GCTTGGATTTCTCATCTCCATTATCTTGCATTCTTGTTCTCGGAGTCACCTAGTGCAG,8380 fluorescence intensity (a.u.)
26,CTATGATCGCACGCACGCAAACCCTATCCCTATGAGCATTCGGAGTCACCTAGTGCAG,11800 fluorescence intensity (a.u.)
27,TCATCCCGATCTCCGCCTCCGGGCTCCACCGTGCGCTCCCCGGAGTCACCTAGTGCAG,9020 fluorescence intensity (a.u.)

# Copied from the list:
# In binding signal, TTTTATTGTTGGGTGTGTTTAATTTTATTTGAACTTCACTCGGAGTCACCTAGTGCAG is entered as 8360 fluorescence intensity (a.u.)
# In binding signal, TCCGATCCGCGCGCTCCCACCACCTGCGCCTCGCATCCTACGGAGTCACCTAGTGCAG is entered as 10300 fluorescence intensity (a.u.)
# In binding signal, TAAACACATCCATCCCTTATGTCCAAAGCATCACTACACACGGAGTCACCTAGTGCAG is entered as 8440 fluorescence intensity (a.u.)
# In binding signal, GTTTATTACGTGGATCTGTGAATTTGTTCATTGTGGACCTCGGAGTCACCTAGTGCAG is entered as 8740 fluorescence intensity (a.u.)

# Carrying on.

row,Sequence,binding signal
1,AATCGTTCGATATTTCGGTGCCACCGAAATTTTCCTGCTTCGGAGTCACCTAGTGCAG,8110 fluorescence intensity (a.u.)
2,TTAAATTCATCTGTGCCCATAACCACATCTCTGATCTCTCCGGAGTCACCTAGTGCAG,9970 fluorescence intensity (a.u.)
3,ACTCCCTCCATCTATTTTTTATAGTCATATTTCATCTCGGCGGAGTCACCTAGTGCAG,8720 fluorescence intensity (a.u.)
4,GTTCGTCTCGCGCCGCTTATTTATTTTTTTTGTTGTGTCCCGGAGTCACCTAGTGCAG,10300 fluorescence intensity (a.u.)
5,AACATCCTCCTCTTCCGCCGCGCGCTTCCTCGCCACCGTCCGGAGTCACCTAGTGCAG,8470 fluorescence intensity (a.u.)
6,TCTTTATTTACCTTTTTTTGAGTCGGACTTCTTTTTCTTTCGGAGTCACCTAGTGCAG,8240 fluorescence intensity (a.u.)
7,ACGCCATAGCCATGCACCATGTCCTCCCTAGTCATTTTTTCGGAGTCACCTAGTGCAG,8210 fluorescence intensity (a.u.)
8,GCTGCCTCGTCTCTTATTCTTTGCAAGACTCCAGATCTTCCGGAGTCACCTAGTGCAG,9870 fluorescence intensity (a.u.)
9,CTCTTCAGCAAAAAATTCATGTTCAGCTCGCACAAGCACACGGAGTCACCTAGTGCAG,8320 fluorescence intensity (a.u.)
10,CTGTTTTATAAGGCCACTTTTACTTCCTGTATATACTTTTCGGAGTCACCTAGTGCAG,8760 fluorescence intensity (a.u.)
11,ACCCTGTAACCCTCAAGGTCCTTAAGAAAAAAAAAACCGCCGGAGTCACCTAGTGCAG,9060 fluorescence intensity (a.u.)
12,GTCTTACACTCTTATCTTACTTGCTTACTCACCGAGTCAACGGAGTCACCTAGTGCAG,8370 fluorescence intensity (a.u.)
13,AGTGAACTTGGTTCTGTGGTTGCATGTATTTGGTGGAGGGCGGAGTCACCTAGTGCAG,9170 fluorescence intensity (a.u.)
14,CCCCACCACGCCCGAATTTATTGCTACTCTACTACTCCTACGGAGTCACCTAGTGCAG,9900 fluorescence intensity (a.u.)
15,GCTTTTGGAATCCCCATACTGGACGCAATTATTCGGCACACGGAGTCACCTAGTGCAG,9020 fluorescence intensity (a.u.)
16,CCTTCTTCCCCTTGCCCCATGTCGCCGGCCGCCTCCTAACCGGAGTCACCTAGTGCAG,11100 fluorescence intensity (a.u.)
17,GGTACAAAATATATCATATATCGTTCTTTGTTTTTTATGTCGGAGTCACCTAGTGCAG,8820 fluorescence intensity (a.u.)
18,TCTCTCTCTCCTCGAGTCTCCATGCCGTGCTCGCGCTATTCGGAGTCACCTAGTGCAG,12400 fluorescence intensity (a.u.)
19,CTCTCTCCGTCTTTACCGTCTCTCCTTCGCCACTCCCCAGCGGAGTCACCTAGTGCAG,9690 fluorescence intensity (a.u.)
20,ACCTCATGGTCTACCTCGCCGTGGCCGGGCGCACGGCGGCCGGAGTCACCTAGTGCAG,8240 fluorescence intensity (a.u.)
21,GTCTCCTTCCACATCTCCAATAATGGCCGCTGTCTCAATCCGGAGTCACCTAGTGCAG,12400 fluorescence intensity (a.u.)
22,TATTCCTCGGCTCTTCTGGCGCCAACCCTGACCTCTCACACGGAGTCACCTAGTGCAG,14100 fluorescence intensity (a.u.)
23,AGGGGTTATCTGTTTGCTCTTCATTGCCACCTCTGTCATGCGGAGTCACCTAGTGCAG,9430 fluorescence intensity (a.u.)
24,ATATATTGCGCTGACCGTATGTATTGGGTATACAAAGTACCGGAGTCACCTAGTGCAG,8310 fluorescence intensity (a.u.)
25,GGATTTGTGTTGCTTCGTTATTAGATTCTAGGTCTACGCTCGGAGTCACCTAGTGCAG,8380 fluorescence intensity (a.u.)
26,CGATCTATATAAACCACATGCATATGCCTGATTTTTCTTCCGGAGTCACCTAGTGCAG,9240 fluorescence intensity (a.u.)
27,AAACCCATTCCCACAATCCATCCACAATTATACATAAATACGGAGTCACCTAGTGCAG,11600 fluorescence intensity (a.u.)
